Experimental data as given in the supplement of paper PMC10849652.
Some of the results follow.

Sequences of proteins named here, by UniProt entry; tags and fusion partners are left off. A change or cut given only in a name is not applied to a line headed by its entry.
UniProt Q9H0E3: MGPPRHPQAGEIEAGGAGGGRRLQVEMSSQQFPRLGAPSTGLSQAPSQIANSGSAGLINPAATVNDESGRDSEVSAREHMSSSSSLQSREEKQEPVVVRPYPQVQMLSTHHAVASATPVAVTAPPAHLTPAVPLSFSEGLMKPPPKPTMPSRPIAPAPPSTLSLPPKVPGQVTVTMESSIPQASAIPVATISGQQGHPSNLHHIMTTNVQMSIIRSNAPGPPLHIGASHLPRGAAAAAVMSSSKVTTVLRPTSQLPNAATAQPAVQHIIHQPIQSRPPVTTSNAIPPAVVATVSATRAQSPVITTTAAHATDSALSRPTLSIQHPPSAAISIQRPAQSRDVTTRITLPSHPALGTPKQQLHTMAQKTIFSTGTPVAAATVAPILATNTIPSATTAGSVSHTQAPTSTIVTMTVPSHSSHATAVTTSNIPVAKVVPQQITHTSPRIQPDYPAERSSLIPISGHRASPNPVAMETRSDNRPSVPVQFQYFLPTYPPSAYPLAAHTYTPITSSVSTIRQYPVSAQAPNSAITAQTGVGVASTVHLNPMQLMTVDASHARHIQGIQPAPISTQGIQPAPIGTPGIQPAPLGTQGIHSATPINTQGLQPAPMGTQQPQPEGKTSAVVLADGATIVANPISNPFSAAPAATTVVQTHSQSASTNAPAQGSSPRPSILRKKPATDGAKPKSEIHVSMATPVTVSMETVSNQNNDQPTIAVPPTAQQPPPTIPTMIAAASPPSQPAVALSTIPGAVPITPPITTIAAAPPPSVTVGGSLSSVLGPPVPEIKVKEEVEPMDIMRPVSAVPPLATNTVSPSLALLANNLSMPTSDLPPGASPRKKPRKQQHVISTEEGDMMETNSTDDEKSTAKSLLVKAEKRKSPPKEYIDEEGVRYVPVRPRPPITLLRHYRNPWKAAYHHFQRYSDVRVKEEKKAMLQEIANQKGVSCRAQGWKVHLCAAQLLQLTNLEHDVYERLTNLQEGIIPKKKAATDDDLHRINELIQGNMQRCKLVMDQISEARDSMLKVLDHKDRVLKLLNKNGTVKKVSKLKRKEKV
UniProt Q68CR1: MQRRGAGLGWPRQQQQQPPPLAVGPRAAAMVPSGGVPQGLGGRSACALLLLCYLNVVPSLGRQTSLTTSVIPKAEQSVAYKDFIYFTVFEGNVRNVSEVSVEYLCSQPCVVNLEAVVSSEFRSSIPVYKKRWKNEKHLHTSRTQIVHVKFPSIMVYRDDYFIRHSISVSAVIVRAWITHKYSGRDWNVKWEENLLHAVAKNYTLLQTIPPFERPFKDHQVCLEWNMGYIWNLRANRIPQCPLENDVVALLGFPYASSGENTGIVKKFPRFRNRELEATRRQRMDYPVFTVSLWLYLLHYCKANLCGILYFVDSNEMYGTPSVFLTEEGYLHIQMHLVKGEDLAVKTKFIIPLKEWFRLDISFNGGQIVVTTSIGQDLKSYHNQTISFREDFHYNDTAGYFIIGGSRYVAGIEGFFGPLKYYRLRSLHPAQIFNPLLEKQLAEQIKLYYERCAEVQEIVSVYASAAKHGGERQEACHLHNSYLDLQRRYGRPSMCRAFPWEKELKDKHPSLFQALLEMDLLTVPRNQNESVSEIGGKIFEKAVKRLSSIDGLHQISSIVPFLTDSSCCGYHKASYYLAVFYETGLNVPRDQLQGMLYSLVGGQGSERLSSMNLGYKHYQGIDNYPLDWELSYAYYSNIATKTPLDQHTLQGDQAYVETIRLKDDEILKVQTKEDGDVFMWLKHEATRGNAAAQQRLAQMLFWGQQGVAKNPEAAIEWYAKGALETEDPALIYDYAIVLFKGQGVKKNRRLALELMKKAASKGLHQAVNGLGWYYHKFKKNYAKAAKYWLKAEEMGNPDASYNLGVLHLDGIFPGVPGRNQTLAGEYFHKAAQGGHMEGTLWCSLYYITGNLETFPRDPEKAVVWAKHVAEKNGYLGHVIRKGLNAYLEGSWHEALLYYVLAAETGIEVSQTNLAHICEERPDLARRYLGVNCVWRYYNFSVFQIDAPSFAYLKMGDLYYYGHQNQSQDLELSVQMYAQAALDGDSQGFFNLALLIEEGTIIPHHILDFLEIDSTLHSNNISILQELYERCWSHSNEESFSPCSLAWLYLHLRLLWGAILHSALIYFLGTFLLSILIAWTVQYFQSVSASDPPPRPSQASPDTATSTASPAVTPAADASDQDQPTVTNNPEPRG
UniProt Q9H9S3, whole entry, looked up: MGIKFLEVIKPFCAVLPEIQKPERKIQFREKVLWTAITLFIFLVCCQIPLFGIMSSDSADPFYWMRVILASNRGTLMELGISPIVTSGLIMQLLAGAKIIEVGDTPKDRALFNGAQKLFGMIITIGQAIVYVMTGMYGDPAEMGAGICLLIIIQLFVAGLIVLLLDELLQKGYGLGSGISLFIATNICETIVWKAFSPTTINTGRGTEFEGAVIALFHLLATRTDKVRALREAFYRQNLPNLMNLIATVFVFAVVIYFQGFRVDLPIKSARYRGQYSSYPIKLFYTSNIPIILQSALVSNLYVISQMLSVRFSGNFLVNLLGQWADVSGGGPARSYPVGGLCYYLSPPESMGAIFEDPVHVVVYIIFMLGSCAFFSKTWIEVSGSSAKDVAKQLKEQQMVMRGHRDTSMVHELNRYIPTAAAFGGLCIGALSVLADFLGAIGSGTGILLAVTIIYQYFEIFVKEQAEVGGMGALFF
UniProt Q9Y467: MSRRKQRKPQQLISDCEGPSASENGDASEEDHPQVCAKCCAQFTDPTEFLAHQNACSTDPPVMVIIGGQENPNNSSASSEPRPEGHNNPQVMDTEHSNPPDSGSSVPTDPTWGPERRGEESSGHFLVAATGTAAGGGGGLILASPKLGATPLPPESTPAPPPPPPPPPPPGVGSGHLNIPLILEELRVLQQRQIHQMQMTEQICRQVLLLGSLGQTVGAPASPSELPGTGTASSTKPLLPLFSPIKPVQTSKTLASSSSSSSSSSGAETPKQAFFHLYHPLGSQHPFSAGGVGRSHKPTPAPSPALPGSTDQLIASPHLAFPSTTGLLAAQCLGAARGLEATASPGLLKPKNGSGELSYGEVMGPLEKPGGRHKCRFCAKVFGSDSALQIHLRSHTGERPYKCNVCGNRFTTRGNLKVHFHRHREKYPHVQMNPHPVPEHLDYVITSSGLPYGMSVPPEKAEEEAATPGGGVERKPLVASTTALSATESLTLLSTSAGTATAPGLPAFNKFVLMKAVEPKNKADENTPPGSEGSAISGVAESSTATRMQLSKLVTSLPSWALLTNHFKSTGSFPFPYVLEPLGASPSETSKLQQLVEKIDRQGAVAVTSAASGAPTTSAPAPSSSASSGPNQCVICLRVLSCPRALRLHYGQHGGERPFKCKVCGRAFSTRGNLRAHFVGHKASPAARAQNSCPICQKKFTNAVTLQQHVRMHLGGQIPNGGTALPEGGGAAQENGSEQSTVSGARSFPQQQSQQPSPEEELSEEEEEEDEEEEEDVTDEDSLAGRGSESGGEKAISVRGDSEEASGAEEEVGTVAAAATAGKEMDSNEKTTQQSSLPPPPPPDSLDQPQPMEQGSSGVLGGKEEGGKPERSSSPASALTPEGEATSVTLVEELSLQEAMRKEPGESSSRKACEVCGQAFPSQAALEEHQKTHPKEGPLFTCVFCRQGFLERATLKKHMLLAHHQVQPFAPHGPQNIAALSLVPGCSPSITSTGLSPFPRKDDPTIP
UniProt O75446: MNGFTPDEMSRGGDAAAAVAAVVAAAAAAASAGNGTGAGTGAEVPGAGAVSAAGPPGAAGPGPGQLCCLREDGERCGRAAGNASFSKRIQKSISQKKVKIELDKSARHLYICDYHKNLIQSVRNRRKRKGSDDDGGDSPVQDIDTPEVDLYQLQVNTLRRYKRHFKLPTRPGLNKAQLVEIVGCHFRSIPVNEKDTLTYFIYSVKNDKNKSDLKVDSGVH

Tests used:
Assay in all cases: log2 fold change, soluble protein after heating vs DMSO (PISA); higher = thermal stabilisation; K562 lysate, 10 uM; active = over 0.2 and 3.5 SD of the protein, either way, in both replicates (recomputed)
ibrutinib = compound: C=CC(=O)N1CCC[C@@H](n2nc(-c3ccc(Oc4ccccc4)cc3)c3c(N)ncnc32)C1 [ibrutinib]
Method in brief: (§1)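 K562 pellets were dounce-homogenised in PBS pH 7.4 containing 1 mM MgCl2, and the crude extract, at 1 mg/mL protein, was exposed to 10 μM compound for 30 min. Aliquots were heated for 3 min across 48°C-58°C, pooled, brought to 0.5% NP-40 at 4°C and spun at 21,000xg for 90 min, with the supernatant taken as soluble protein. TMTpro 16plex LC-MS/MS with equalised channel sums quantified that protein. Values are log-two fold changes in thermal stability relative to solvent controls, taken from duplicates.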

[1] = compound: CC1=C(C(CC(=O)N1)C2=CC=C(C=C2)C(F)(F)F)C(=O)NC3=C(C=C4C(=C3)C=NN4)F
Method in brief: as §1

[2] = compound: CC1=C(C2=C(C=C1)C(=O)C3=CC=CC=C3N2CCCN)C
Method in brief: as §1

[3] = compound: CC1=C(C=C(C=C1)NC(=O)C2=CC(=CC=C2)C(C)(C)C#N)NC3=CC4=C(C=C3)N=CN(C4=O)C
Method in brief: as §1

barasertib = compound: CCN(CCCOc1ccc2c(Nc3cc(CC(=O)Nc4cccc(F)c4)[nH]n3)ncnc2c1)CCOP(=O)(O)O [barasertib]
Method in brief: as §1

saracatinib = compound: CN1CCN(CCOc2cc(OC3CCOCC3)c3c(Nc4c(Cl)ccc5c4OCO5)ncnc3c2)CC1 [saracatinib]
Method in brief: as §1

sotrastaurin = compound: CN1CCN(c2nc(C3=C(c4c[nH]c5ccccc45)C(=O)NC3=O)c3ccccc3n2)CC1 [sotrastaurin]
Method in brief: as §1

[4] = compound: CC(=O)c1cnc2ccc(-c3cc(Cl)c(O)c(Cl)c3)nc2c1N[C@H]1CC[C@H](CN(C)C)CC1
Method in brief: as §1

ralimetinib = compound: CC(C)(C)Cn1c(N)nc2ccc(-c3[nH]c(C(C)(C)C)nc3-c3ccc(F)cc3)nc21 [ralimetinib]
Method in brief: as §1

[5] = compound: CC(C)(O)CC(=O)NCCn1ccc2ncnc(Nc3ccc(Oc4cccc(C(F)(F)F)c4)c(Cl)c3)c21
Method in brief: as §1

[6] = compound: CC(C)C1=C2N=C(C=C(N2N=C1)NCC3=CC=CC=C3)NCCCCCCN
Method in brief: as §1

[7] = compound: CC1=C(C=C(C=C1)NC(=O)C2=CC(=CC=C2)N(C)C)NC(=O)C3=CC=C(C=C3)O
Method in brief: as §1

[8] = compound: CC1=CC=C(C=C1)SC2=C3C=C(SC3=CN=C2)C(=O)N
Method in brief: as §1

vemurafenib = compound: CCCS(=O)(=O)Nc1ccc(F)c(C(=O)c2c[nH]c3ncc(-c4ccc(Cl)cc4)cc23)c1F [vemurafenib]
Method in brief: as §1

[9] = compound: CCCS(=O)(=O)Nc1ccc(F)c(C(=O)c2c[nH]c3ncc(Cl)cc23)c1F
Method in brief: as §1

[10] = compound: CC[C@@H]1C(=O)N(C)c2cnc(Nc3ccc(C(=O)NC4CCN(C)CC4)cc3OC)nc2N1C1CCCC1
Method in brief: as §1

volasertib = compound: CC[C@@H]1C(=O)N(C)c2cnc(Nc3ccc(C(=O)N[C@H]4CC[C@H](N5CCN(CC6CC6)CC5)CC4)cc3OC)nc2N1C(C)C [volasertib]
Method in brief: as §1

[11] = compound: CCn1c(C(=O)N(C2CC2)C2CC2)cc2c3c(ncn3C)c(Nc3cc(C)n(C)n3)nc21
Method in brief: as §1

[12] = compound: CCn1cc(-c2ccnc3[nH]c(-c4cccc(CN(C)C)c4)cc23)c(-c2ccc(NC(=O)N(C)C)cc2)n1
Method in brief: as §1

[13] = compound: CN1CCC(CNc2ccc3ncc(-c4cccc(OC(F)(F)F)c4)n3n2)CC1
Method in brief: as §1

Measured: log2 fold change

SAFB2 (UniProt K7EQU4)
inactive: ibrutinib 0.135 | [1] -0.028 | [2] -0.05 | [3] 0.101 | barasertib -0.188 | saracatinib 0.185 | sotrastaurin -0.015

SAP130 isoform 3 (UniProt Q9H0E3)
inactive: [4] -0.032 | ralimetinib -0.096 | [5] -0.091 | [6] 0.005 | [2] -0.033 | [3] -0.019 | [7] 0.035 | [8] -0.016 | vemurafenib 0.018 | [9] 0.01 | [10] 0.059 | volasertib 0.032 | [11] 0.046 | [12] -0.082 | [13] -0.038 | saracatinib 0.042 | sotrastaurin -0.007

SEL1L3 (UniProt Q68CR1)
inactive: ibrutinib 0.042 | ralimetinib 0.008 | [5] 0.012 | [6] -0.038 | [1] 0.141 | [2] -0.098 | [3] 0.092 | [7] -0.016 | vemurafenib 0.025 | barasertib -0.05 | [10] 0.066 | [11] -0.002 | [12] 0.003 | [13] -0.022 | saracatinib 0.043 | sotrastaurin -0.026

SEC61A2 (UniProt Q9H9S3)
inactive: ibrutinib 0.006 | [4] -0.011 | ralimetinib 0 | [5] -0.015 | [6] 0 | [1] 0.026 | [2] -0.083 | [3] 0.083 | [7] -0.101 | [8] -0.026 | vemurafenib -0.004 | [9] -0.028 | barasertib 0.008 | [10] 0.023 | volasertib 0.028 | [11] 0.018 | [12] -0.182 | [13] 0.047 | saracatinib -0.01 | sotrastaurin 0.049

SALL2 (UniProt Q9Y467)
inactive: ibrutinib -0.045 | [4] 0.147 | ralimetinib -0.022 | [5] -0.058 | [6] 0.041 | [1] 0.051 | [2] -0.008 | [3] -0.013 | [7] 0.028 | [8] -0.027 | [9] 0.015 | barasertib 0.059 | [10] 0.024 | volasertib -0.123 | [11] 0.049 | [12] -0.08 | [13] 0.294 | saracatinib -0.1 | sotrastaurin -0.066

SEPTIN8 (UniProt F8W8I8)
inactive: [4] -0.086 | ralimetinib 0.004 | [5] -0.068 | [6] 0.008 | [1] -0.084 | [2] -0.012 | [7] -0.152 | [8] -0.173 | [9] -0.019 | volasertib -0.033 | [11] -0.076 | [12] -0.291 | [13] 0.158 | saracatinib 0.022

SAP30 (UniProt O75446)
inactive: ibrutinib 0.058 | [4] 0.033 | [1] 0.101 | [2] -0.007 | [3] 0.016 | [8] 0.006 | vemurafenib -0.016 | [9] 0.006 | barasertib 0.051 | [10] 0.063 | volasertib -0.054 | [12] 0.103 | [13] -0.022 | saracatinib 0.016 | sotrastaurin -0.013
